Experimental findings from article PMC10836090 are described below.

Protein sequences, listed by entry. Tags and fused reporters are not part of them. Residues count along the entry.
UniProt P16035, residues 27-220: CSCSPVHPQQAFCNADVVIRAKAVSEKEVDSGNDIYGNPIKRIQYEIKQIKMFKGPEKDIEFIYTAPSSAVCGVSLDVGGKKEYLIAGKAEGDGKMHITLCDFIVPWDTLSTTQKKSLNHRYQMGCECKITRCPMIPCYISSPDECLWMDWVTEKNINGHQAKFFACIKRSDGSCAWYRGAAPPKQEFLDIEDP
UniProt Q9NS15, residues 44-1303: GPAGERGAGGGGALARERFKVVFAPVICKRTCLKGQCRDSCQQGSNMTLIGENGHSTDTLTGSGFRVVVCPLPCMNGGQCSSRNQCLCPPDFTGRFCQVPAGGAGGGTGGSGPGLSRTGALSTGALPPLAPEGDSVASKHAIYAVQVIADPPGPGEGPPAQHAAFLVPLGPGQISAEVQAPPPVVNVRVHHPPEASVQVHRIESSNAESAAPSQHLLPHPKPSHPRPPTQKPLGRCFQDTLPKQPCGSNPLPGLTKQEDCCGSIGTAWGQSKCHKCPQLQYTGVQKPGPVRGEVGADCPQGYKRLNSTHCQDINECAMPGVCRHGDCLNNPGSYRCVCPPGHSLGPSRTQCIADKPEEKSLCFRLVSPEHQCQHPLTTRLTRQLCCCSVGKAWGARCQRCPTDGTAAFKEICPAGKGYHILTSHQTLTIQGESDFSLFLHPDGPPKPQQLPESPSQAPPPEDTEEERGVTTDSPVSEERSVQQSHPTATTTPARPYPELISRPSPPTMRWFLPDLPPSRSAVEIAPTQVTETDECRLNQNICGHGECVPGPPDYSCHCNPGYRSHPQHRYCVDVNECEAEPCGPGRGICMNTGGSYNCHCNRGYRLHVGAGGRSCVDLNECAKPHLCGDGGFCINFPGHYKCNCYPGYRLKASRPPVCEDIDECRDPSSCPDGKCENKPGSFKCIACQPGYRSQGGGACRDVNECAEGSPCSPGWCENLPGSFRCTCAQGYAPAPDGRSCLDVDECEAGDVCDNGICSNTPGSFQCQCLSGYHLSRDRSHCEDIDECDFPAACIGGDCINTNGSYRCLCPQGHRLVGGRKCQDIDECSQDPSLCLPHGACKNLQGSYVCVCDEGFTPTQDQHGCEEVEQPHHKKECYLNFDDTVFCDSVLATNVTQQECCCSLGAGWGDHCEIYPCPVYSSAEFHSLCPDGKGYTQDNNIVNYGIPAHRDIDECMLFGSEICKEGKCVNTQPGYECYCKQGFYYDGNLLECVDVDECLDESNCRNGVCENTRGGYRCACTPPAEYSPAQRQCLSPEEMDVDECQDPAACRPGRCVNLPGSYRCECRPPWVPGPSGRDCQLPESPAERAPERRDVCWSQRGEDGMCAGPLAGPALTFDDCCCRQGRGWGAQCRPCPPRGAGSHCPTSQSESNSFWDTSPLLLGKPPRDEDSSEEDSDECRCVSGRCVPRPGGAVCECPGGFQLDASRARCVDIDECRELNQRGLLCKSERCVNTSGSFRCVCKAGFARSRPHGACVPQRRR

Assay [1] has as its target BioID2-TIMP2 fusion protein (human) (UniProt P16035). Kind of assay: proximity labelling; ePL with BioID2 fusions on wild-type HT1080 spheroids (3D, ultra-low binding plates); fusion-expressing cells grown in 2D; single duplicate experiment, both orientations (n=4 samples); streptavidin pulldown, LC-MS/MS.
For assay [2], the target named is TIMP2-BioID2 fusion protein (human) (UniProt P16035). The assay is described as above.

These are yes or no findings as the source states them, for the method shown. Binding seen in cells or lysates may run through a third protein. These calls come from enrichment with a bait or labelling near it, and not all partners need be listed.

As to LTBP3 (from UniProt Q9NS15 44-1303), the binding entry in assay [1] and in assay [2] was “binds” in each case.
